Experimental data taken from patent US20250320268A1 (SHATTUCK LABS, published 2025).
These are yes or no findings as the source states them, for the method shown. Some entries that bind do so weakly or less than the wild type. Where a sequence is shown, tags or fusion partners need not be part of it.

What was measured:
[1] = molecular target: T1, recombinant mouse CD40 (mouse) (UniProt P27512); test: dual ELISA: coat mCD47-Fc, detect mCD40-His, tertiary anti-his-HRP
T1 sequence (looked up): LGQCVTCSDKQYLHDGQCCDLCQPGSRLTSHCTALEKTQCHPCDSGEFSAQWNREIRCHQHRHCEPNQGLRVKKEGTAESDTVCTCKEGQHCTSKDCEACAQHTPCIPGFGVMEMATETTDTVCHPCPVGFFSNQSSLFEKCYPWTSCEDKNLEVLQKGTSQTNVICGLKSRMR

recombinant mouse CD47 [2] = molecular target: T2, recombinant mouse CD47 (mouse, UniProt Q61735 19-140, limits assumed); test: dual functional ELISA (FIG. 9E)
T2 construct: also called mCD47-Fc
T2 sequence (looked up): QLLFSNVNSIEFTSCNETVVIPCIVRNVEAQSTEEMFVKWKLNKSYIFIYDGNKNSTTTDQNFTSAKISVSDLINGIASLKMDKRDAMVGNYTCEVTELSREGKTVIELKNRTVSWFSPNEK

[3] = molecular target: T1, recombinant mouse CD40 (mouse); test: dual functional ELISA (FIG. 9E)
recombinant mouse CD47 [4] = molecular target: T2, recombinant mouse CD47; test: dual functional ELISA (legend of FIG. 9E)
[5] = molecular target: T1, recombinant mouse CD40 (mouse); test: dual functional ELISA (legend of FIG. 9E)

Measured: binding

B1: murine SIRPα-Fc-CD40L chimeric protein surrogate (Fc fusion)
chain: KELKVTQPEKSVSVAAGDSTVLNCTLTSLLPVGPIRWYRGVGPSRLLIYSFAGEYVPRIRNVSDTTKRNNMDFSIRISNVTPADAGIYYCVKFQKGSSEPDTEIQSGGGTEVYVLAKPSPPEVSGPADRGIPDQKVNFTCKSHGFSPRNITLKWFKDGQELHPLETTVNPSGKNVSYNISSTVRVVLNSMDVNSKVICEVAHITLDRSPLRGIANLSNFIRVSPTVKVTQQSPTSMNQVNLTCRAERFYPEDLQLIWLENGNVSRNDTPKNLTKNTDGTYNYTSLFLVNSSAHREDVVFTCQVKHDQQPAITRNHTVLGFAHSSDQGSMQTFPDNNATHNWNVPRDCGCKPCICTVPEVSSVFIFPPKPKDVLTITLTPKVTCVVVDISKDDPEVQFSWFVDDVEVHTAQTQPREEQFNSTFRSVSELPIMHQDWLNGKEFKCRVNSAAFPAPIEKTISKTKGRPKAPQVYTIPPPKEQMAKDKVSLTCMITDFFPEDITVEWQWNGQPAENYKNTQPIMNTNGSYFVYSKLNVQKSNWEAGNTFTCSVLHEGLHNHHTEKSLSHSPGKHRRLDKVEEEVNLHEDFVFIKKLKRCNKGEGSLSLLNCEEMRRQFEDLVKDITLNKEEKKENSFEMQRGDEDPQIAAHVVSEANSNAASVLQWAKKGYYTMKSNLVMLENGKQLTVKREGLYYVYTQVTFCSNREPSSQRPFIVGLWLKPSSGSERILLKAANTHSSSQLCEQQSVHLGGVFELQAGASVFVNVTEASQVIHRVGFSSFGLLKL
notes: also called mSIRPα-Fc-CD40L; mouse SIRPα-Fc-CD40L
binds: all assays above
